Assay results taken from patent US20030162221A1.
No constants are given. Whether binding was seen depends on the method and setting. Binding seen in cells or lysates may run through a third protein. Some binding calls cover weakened binding; strength is not graded here. Where a sequence is shown, tags or fusion partners need not be part of it. One block for each binder: values may come before it.

Experiments:
[1] = target: T1, Mec3 (Saccharomyces cerevisiae) (UniProt Q02574); assay: anti-FLAG co-IP, LC-MS/MS; pair by Table 2
T1 sequence (looked up): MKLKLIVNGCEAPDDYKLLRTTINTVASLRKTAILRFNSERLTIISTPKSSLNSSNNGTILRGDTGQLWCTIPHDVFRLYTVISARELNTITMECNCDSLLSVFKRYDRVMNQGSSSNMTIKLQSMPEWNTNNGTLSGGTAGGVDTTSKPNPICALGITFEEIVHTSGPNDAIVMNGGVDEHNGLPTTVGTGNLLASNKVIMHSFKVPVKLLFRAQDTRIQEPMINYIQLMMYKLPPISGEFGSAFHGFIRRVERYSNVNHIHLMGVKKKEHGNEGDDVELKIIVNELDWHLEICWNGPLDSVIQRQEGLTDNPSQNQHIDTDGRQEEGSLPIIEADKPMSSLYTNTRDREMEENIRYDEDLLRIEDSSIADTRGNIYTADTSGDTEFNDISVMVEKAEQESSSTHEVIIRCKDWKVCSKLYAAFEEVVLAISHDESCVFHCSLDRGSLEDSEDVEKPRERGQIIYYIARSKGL

[2] = target: T2, Rfc4 (Saccharomyces cerevisiae) (UniProt P40339); assay: anti-FLAG co-IP, LC-MS/MS
T2 sequence (looked up): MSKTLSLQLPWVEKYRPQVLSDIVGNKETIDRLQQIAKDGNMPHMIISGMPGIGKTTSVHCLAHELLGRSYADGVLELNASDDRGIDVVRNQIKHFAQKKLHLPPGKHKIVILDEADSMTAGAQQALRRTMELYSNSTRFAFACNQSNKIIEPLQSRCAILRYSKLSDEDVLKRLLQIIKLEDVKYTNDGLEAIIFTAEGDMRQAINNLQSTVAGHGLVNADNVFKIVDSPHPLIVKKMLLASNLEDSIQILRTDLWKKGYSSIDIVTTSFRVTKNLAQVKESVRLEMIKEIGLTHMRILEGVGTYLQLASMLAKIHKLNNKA

[3] = target: T1, Mec3 (Saccharomyces cerevisiae); assay: anti-FLAG co-IP, LC-MS/MS
[4] = target: T3, Ubc13 (Saccharomyces cerevisiae) (UniProt P52490); assay: anti-FLAG co-IP, LC-MS/MS; pair by Table 2
T3 sequence (looked up): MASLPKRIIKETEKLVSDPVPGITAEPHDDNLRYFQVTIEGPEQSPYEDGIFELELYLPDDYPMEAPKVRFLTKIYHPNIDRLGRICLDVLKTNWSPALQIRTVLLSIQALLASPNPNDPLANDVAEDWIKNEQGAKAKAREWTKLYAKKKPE

[5] = target: T3, Ubc13 (Saccharomyces cerevisiae); assay: anti-FLAG co-IP, LC-MS/MS
[6] = target: T4, Dun1 (Saccharomyces cerevisiae) (UniProt P39009); assay: anti-FLAG co-IP, LC-MS/MS; Dun1 was the prey by Table 2
T4 sequence (looked up): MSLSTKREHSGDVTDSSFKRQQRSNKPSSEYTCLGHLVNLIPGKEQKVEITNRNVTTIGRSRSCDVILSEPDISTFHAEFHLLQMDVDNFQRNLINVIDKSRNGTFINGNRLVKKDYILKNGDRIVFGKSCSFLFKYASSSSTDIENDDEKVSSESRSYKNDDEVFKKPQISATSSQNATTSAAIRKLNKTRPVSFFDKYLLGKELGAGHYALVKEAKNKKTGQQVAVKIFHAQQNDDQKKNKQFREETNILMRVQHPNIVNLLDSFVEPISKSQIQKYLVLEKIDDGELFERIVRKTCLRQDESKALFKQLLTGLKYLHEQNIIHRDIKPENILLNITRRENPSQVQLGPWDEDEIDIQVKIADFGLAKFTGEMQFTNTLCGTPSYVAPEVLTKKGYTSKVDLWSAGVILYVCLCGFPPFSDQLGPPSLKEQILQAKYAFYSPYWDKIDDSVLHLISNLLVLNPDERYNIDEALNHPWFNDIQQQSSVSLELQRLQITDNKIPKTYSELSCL

[7] = target: T5, Rfc5 (Saccharomyces cerevisiae) (UniProt P38251); assay: anti-FLAG co-IP, LC-MS/MS; pair by Table 2
T5 sequence (looked up): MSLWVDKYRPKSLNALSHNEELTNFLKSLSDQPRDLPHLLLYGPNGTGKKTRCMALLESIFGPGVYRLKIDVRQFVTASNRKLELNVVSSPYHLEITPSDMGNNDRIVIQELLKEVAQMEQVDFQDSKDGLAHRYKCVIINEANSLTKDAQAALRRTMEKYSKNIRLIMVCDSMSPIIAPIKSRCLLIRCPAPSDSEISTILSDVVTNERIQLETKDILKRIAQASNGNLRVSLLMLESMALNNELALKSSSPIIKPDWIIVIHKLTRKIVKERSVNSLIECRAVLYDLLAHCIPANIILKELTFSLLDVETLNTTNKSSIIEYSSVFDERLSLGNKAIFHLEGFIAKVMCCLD

[8] = target: T6, Rfc3 (Saccharomyces cerevisiae) (UniProt P38629); assay: anti-FLAG co-IP, LC-MS/MS; pair by Table 2
T6 sequence (looked up): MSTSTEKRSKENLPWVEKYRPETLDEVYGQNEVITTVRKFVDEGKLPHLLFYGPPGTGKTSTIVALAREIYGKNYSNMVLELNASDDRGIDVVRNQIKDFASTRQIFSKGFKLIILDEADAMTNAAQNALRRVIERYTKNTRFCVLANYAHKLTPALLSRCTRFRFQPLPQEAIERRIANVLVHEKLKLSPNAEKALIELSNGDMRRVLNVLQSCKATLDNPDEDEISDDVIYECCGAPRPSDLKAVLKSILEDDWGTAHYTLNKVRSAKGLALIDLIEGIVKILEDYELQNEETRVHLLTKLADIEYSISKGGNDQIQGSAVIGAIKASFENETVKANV

[9] = target: T7, Rfc2 (Saccharomyces cerevisiae) (UniProt P40348); assay: anti-FLAG co-IP, LC-MS/MS; pair by Table 2
T7 sequence (looked up): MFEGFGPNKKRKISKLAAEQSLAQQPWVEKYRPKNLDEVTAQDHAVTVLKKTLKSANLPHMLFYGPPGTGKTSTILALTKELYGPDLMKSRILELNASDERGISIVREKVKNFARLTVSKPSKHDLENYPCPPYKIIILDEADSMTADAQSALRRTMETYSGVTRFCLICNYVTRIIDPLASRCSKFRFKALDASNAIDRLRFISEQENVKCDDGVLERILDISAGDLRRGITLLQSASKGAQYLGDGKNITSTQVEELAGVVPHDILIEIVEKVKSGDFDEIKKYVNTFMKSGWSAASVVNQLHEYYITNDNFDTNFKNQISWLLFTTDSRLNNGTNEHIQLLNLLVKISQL

[10] = target: T4, Dun1 (Saccharomyces cerevisiae); assay: anti-FLAG co-IP, LC-MS/MS
[11] = target: T5, Rfc5 (Saccharomyces cerevisiae); assay: anti-FLAG co-IP, LC-MS/MS
[12] = target: T6, Rfc3 (Saccharomyces cerevisiae); assay: anti-FLAG co-IP, LC-MS/MS
[13] = target: T7, Rfc2 (Saccharomyces cerevisiae); assay: anti-FLAG co-IP, LC-MS/MS
[14] = target: T8, Rad17 (Saccharomyces cerevisiae) (UniProt P48581); assay: anti-FLAG co-IP, LC-MS/MS; pair by Table 2
T8 sequence (looked up): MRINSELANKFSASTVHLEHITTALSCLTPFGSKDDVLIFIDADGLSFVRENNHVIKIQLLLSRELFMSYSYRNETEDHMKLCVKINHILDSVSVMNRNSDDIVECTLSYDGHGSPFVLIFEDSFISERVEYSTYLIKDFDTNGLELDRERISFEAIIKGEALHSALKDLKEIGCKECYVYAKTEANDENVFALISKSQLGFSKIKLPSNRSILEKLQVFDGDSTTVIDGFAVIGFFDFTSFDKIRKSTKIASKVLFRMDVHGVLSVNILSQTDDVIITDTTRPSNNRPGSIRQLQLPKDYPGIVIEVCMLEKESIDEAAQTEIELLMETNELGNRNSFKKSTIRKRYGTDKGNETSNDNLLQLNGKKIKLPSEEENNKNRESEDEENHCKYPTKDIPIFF

[15] = target: T8, Rad17 (Saccharomyces cerevisiae); assay: anti-FLAG co-IP, LC-MS/MS

- binding [1]: binds
- binding [2]: binds
- binding [3]: binds
B1: Ddc1 (protein, Saccharomyces cerevisiae, UniProt Q08949 1-612, looked up)
chain: MSFKATITESGKQNIWFRAIYVLSTIQDDIKITVTTNELIAWSMNETDTTLCQVRFQKSFFEEYEFKPHEIVFGENGVQVIEDTYGNSHKLYSFRVNGRHLTTISRKPDGDGIKSFTIAVNNTSTCPESLANRLIVVIEMDSLIVKEYCPQFQPIKYDPIIINLKYKRRFLDVFGTAASDRNPQEPLDPKLLDVFTNTERELTSALFNEEVESDIRKRNQLTAADEINYICCNSTLLKNFLDNCNVNVTDEVKLEINVHRLSITAFTKAVYGKNNDLLRNALSMSNTISTLDLEHYCLFTTIEDEKQDKRSHSKRREHMKSIIFKLKDFKNFITIGPSWKTTQDGNDNISLWFCHPGDPILMQMQKPGVKLELVEVTDSNINDDILEGKFIKTAISGSKEEAGLKDNKESCESPLKSKTALKRENLPHSVAGTRNSPLKVSYLTPDNGSTVAKTYRNNTARKLFVEEQSQSTNYEQDKRFRQASSVHMNMNREQSFDIGTTHEVACPRNESNSLKRSIADICNETEDPTQQSTFAKRADTTVTWGKALPAADDEVSCSNIDRKGMLKKEKLKHMQGLLNSQNDTSNHKKQDNKEMEDGLGLTQVEKPRGIFD

- binding [4]: binds
- binding [5]: binds
B2: Mms2 (protein, Saccharomyces cerevisiae, UniProt P53152 1-137, looked up)
chain: MSKVPRNFRLLEELEKGEKGFGPESCSYGLADSDDITMTKWNGTILGPPHSNHENRIYSLSIDCGPNYPDSPPKVTFISKINLPCVNPTTGEVQTDFHTLRDWKRAYTMETLLLDLRKEMATPANKKLRQPKEGETF

- binding [6]: binds
- binding [7]: binds
- binding [8]: binds
- binding [9]: binds
- binding [10]: binds
- binding [11]: binds
- binding [12]: binds
- binding [13]: binds
B3: Rad24 (protein, Saccharomyces cerevisiae, UniProt P32641 1-659, looked up)
chain: MDSTNLNKRPLLQYSLSSLGSQITKWSSSRPTSPVRKARSTENDFLSKQDTSSILPSINDDGGEQWYEKFKPNCLEQVAIHKRKLKDVQEALDAMFLPNAKHRILLLSGPSGCSKSTVIKELSKILVPKYRQNSNGTSFRSTPNEHKVTEFRGDCIVNDLPQMESFSEFLKGARYLVMSNLSLILIEDLPNVFHIDTRRRFQQLILQWLYSSEPLLPPLVICITECEIPENDNNYRKFGIDYTFSAETIMNKEILMHPRLKRIKFNPINSTLLKKHLKFICVQNMKMLKEKNKWNKRQEVIDYIAQETGDIRSAITTLQFWATSSGSLPISTRESTISYFHAIGKVIHGSHSTNNDNEMINNLFENSNNLLSKEDFKLGILENYNTFNKGEFSISDASSIVDCLSECDNMNGLPESNEYGLREVRKTFRNISKQGHNHGTVYFPREWKVRKLQNSFKVQAEDWLNVSLYKYNAVHSFRNITLEFGYYAPLIRKCQSYKKKYILYYLKNLPSGSSGPKQTMDKFSDIMKVENGIDVVDRIGGPIEALSVEDGLAPLMDNDSNNCDHLEDQKKERDRRLRMLIDQYERNVMMANDDLEDEETSFNDDPIVDSDSDNSNNIGNETFGRSDEDESLCEILSQRQPRKAPVISESLSDSDLEIL

- binding [14]: binds
- binding [15]: binds
B4: Mec3 (protein, Saccharomyces cerevisiae, UniProt Q02574 1-474, looked up)
chain: T1 sequence (looked up)
